Test results: the supplement of paper PMC10060354, “Discovery of a small molecule ligand of FRS2 that inhibits invasion and tumor growth” (Cellular Oncology, 2022)

The chains behind the UniProt entries cited, without tags or fusion partners. Where a name states a change or a piece, a line headed by the entry shows the natural chain unless it says otherwise.
UniProt Q7Z7N9: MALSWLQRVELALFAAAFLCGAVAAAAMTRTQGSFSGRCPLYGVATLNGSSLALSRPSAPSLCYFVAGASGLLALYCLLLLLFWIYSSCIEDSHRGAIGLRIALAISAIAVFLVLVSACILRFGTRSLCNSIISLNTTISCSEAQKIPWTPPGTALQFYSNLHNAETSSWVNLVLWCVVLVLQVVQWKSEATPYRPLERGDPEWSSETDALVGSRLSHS
UniProt O14818: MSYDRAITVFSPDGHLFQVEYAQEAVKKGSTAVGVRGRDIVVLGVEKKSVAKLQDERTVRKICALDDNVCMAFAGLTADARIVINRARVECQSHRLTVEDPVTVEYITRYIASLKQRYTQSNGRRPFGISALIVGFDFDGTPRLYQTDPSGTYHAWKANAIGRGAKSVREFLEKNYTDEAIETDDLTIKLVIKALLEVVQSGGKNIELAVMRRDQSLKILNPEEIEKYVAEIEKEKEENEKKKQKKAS
UniProt Q9H7E9: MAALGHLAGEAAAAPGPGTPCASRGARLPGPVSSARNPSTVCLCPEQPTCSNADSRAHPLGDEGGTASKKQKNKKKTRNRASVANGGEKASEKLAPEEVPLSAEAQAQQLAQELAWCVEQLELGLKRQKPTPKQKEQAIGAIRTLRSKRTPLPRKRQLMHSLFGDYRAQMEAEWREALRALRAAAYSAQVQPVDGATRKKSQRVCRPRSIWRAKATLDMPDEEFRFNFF
UniProt Q6NZ67, whole entry: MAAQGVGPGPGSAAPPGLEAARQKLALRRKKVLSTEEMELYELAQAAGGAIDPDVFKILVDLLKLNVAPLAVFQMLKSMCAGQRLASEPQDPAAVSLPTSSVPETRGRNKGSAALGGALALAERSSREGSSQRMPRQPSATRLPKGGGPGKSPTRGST
UniProt P53611: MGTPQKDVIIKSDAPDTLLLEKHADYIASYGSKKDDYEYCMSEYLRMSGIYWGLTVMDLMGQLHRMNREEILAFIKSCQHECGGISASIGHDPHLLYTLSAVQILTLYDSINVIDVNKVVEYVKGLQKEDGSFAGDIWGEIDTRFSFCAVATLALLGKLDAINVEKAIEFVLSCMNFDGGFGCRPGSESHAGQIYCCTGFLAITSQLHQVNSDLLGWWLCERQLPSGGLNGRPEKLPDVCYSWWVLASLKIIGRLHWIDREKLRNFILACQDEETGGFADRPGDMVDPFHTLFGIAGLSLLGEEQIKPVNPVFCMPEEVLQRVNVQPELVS
UniProt Q5T655: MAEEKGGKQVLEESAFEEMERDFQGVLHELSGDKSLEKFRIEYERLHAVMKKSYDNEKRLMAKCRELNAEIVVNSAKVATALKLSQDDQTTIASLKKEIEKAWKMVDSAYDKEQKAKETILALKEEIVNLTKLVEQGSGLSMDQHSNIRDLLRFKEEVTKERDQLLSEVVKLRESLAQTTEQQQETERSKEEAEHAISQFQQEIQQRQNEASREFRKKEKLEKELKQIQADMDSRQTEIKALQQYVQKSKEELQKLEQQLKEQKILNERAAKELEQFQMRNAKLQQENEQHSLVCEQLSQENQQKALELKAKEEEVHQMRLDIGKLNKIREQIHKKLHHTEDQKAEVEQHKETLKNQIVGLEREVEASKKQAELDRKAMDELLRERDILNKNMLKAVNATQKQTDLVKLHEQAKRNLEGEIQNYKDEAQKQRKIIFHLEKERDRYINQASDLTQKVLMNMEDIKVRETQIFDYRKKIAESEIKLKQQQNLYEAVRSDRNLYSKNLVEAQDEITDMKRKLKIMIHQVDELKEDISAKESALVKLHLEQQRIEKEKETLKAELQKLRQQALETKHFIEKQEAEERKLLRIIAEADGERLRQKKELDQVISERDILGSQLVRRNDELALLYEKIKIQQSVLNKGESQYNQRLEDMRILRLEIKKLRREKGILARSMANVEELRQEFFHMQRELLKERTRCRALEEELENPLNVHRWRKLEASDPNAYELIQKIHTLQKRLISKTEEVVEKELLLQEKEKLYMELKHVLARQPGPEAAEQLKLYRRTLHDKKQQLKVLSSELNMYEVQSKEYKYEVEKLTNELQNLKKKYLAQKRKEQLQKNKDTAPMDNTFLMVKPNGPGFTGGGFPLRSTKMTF
UniProt P09038, whole entry: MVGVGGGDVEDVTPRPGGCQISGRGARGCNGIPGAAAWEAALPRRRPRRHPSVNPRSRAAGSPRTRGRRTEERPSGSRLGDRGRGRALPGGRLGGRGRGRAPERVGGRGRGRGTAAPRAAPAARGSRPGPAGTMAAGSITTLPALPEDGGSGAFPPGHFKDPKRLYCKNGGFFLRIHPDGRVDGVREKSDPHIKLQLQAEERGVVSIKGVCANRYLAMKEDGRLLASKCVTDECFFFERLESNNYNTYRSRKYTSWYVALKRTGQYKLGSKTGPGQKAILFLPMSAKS
UniProt Q5TDH0: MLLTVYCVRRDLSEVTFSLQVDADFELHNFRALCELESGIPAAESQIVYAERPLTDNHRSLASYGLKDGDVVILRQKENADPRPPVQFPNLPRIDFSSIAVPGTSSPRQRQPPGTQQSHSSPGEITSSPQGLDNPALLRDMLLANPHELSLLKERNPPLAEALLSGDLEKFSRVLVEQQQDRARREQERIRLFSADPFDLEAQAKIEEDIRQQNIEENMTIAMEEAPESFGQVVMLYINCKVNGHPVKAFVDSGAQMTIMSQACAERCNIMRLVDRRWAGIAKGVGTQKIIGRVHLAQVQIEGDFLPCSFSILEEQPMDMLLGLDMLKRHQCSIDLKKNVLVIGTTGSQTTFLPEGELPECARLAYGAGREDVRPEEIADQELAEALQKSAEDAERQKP
UniProt Q8NFH4: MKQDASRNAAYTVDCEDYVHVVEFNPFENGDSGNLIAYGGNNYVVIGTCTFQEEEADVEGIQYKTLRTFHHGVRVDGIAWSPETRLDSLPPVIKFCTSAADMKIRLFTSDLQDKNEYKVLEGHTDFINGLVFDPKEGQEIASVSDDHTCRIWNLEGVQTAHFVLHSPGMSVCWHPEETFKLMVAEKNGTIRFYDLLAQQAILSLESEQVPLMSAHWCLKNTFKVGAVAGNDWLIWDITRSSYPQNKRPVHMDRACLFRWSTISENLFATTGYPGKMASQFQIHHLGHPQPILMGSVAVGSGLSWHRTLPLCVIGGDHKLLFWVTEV
UniProt Q9H425: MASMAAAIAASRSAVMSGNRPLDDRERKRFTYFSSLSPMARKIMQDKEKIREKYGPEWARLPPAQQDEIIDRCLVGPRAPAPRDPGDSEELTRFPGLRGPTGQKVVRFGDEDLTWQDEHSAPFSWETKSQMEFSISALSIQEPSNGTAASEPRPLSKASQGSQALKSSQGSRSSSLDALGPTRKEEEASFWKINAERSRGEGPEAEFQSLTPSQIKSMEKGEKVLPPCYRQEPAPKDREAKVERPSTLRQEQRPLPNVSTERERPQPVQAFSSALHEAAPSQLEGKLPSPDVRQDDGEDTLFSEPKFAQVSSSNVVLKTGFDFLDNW
UniProt Q9Y2D2: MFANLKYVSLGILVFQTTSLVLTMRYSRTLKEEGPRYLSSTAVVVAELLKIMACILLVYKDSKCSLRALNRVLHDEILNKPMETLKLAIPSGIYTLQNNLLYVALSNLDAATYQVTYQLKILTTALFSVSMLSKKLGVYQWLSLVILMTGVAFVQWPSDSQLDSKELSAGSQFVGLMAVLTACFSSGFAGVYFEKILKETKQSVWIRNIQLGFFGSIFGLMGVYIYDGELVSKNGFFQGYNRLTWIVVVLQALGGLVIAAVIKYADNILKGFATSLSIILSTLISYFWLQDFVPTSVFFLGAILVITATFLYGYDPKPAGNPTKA
UniProt Q96S66: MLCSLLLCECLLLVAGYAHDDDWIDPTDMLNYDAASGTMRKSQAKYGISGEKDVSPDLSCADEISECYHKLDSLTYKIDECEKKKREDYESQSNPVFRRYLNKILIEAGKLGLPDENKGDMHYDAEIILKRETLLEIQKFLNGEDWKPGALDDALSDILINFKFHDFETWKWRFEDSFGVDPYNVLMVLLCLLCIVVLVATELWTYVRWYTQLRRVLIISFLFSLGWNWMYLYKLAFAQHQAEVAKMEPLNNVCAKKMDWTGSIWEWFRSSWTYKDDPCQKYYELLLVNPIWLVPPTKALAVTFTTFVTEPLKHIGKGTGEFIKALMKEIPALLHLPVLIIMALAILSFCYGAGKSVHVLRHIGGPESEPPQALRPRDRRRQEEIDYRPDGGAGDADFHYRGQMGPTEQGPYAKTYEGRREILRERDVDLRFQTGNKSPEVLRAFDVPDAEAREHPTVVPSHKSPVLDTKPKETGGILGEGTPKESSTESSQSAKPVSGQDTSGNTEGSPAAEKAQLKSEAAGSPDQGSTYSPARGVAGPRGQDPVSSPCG
UniProt Q8N5P1: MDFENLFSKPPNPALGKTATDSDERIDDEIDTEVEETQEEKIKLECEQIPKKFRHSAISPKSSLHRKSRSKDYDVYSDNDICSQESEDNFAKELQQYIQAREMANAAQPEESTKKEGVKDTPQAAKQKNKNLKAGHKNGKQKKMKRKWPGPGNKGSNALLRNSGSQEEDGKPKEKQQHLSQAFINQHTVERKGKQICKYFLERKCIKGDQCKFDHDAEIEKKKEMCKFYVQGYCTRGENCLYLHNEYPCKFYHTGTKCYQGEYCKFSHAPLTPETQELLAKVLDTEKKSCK
UniProt P38919, whole entry: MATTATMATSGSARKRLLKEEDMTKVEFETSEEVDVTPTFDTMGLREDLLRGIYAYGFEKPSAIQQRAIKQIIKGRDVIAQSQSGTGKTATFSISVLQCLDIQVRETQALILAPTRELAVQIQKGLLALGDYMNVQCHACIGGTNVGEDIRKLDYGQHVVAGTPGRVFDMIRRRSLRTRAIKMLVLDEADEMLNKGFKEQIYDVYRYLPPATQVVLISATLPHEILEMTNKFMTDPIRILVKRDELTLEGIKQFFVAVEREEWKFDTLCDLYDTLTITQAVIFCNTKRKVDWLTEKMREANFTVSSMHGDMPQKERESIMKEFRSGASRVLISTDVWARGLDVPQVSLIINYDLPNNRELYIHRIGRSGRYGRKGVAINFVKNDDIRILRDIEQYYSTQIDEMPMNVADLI
UniProt P46977: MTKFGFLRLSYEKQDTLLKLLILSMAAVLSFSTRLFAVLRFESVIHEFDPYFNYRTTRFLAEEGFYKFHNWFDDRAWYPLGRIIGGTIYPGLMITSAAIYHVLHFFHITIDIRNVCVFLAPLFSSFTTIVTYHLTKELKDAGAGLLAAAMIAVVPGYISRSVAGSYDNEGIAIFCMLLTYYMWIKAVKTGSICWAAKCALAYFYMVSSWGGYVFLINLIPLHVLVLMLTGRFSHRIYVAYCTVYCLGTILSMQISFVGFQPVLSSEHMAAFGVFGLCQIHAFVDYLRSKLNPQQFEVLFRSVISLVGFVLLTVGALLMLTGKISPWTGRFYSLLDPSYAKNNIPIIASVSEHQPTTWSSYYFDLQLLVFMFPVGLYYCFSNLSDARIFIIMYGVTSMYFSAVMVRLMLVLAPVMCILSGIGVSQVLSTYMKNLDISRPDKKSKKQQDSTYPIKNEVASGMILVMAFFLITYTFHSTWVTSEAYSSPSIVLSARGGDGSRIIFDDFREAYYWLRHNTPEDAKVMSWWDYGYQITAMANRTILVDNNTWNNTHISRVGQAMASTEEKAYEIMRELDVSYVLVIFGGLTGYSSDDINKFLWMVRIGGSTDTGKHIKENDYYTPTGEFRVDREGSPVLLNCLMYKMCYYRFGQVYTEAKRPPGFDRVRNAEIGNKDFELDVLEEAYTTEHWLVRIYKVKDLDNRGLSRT
UniProt Q8NGA1: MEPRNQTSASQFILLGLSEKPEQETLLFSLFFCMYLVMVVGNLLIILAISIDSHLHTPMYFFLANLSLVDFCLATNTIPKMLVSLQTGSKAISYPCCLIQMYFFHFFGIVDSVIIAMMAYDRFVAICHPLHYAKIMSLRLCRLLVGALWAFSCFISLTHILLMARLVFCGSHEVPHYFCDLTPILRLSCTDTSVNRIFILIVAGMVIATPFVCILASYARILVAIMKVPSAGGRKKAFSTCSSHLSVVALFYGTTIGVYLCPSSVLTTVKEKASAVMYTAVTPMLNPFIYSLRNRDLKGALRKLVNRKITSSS
UniProt Q9P0I2: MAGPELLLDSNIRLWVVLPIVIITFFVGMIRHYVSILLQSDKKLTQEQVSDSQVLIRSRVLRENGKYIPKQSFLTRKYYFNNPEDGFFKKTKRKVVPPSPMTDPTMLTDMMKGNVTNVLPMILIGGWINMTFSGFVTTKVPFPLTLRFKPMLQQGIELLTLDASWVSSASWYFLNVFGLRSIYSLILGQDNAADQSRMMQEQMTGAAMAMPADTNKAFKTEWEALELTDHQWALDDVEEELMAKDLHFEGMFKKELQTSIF

Compound: [O-][N+](C(C1=C(C(O)=C2)NC(C(C=C3)=CC=C3Cl)C4C1C=CC4)=C2Cl)=O
Experiment: melting temperature shift (compound 7 minus DMSO); higher = compound stabilises the protein
Details: 10 µM
Protocol: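 Thermal proteome profiling (TMT mass spectrometry) in intact DAOY medulloblastoma cells or DAOY lysates treated with 10 µM compound 7 or DMSO, heated at 10 temperatures from 40.5 to 73.8 °C for 3 min. Melting curves were fitted with the Bioconductor TPP package, and the melting point difference between compound and vehicle is reported per protein (single curve per condition).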

[1] = system: DAOY cell lysate, treatment time: 20 min, 4 °C
[2] = system: intact DAOY cells, treatment time: 90 min, 37 °C

Target | melting temperature shift [1] [°C] | melting temperature shift [2] [°C]
UniProt Q7Z7N9 | -0.0357 | –
PSMA7 (UniProt O14818) | 0.243 | 0.066
PRRC2B (UniProt Q5JSZ5) | -0.53 | –
C8ORF33 (UniProt Q9H7E9) | -1.19 | -0.158
MZT2B (UniProt Q6NZ67) | 0.45 | –
UNG (UniProt P13051) | -1.53 | -0.777
RABGGTB (UniProt P53611) | -0.842 | 1.11
UniProt Q08043 | – | -0.2
TRMT61A (UniProt Q96FX7) | 0.244 | -0.903
UniProt Q96C03 | – | -0.924
PFDN4 (UniProt Q9NQP4) | – | -0.683
ALDH1A3 (UniProt P47895) | -0.0297 | -0.913
PSMG1 (UniProt O95456) | -3.67 | 0.746
XRCC1 (UniProt P18887) | 1.18 | -1.34
HSPG2 (UniProt P98160) | -1.58 | –
EIF4H (UniProt Q15056) | 0.029 | -0.132
UniProt Q9BQI6 | – | -0.67
LGALS1 (UniProt P09382) | 0.74 | 0.00859
PACSIN3 (UniProt Q9UKS6) | -0.196 | 0.722
PSPC1 (UniProt Q8WXF1) | -0.213 | -0.384
IRF2BPL (UniProt Q9H1B7) | -1.46 | -1.88
FUNDC2 (UniProt Q9BWH2) | -3.38 | –
UniProt Q8TCB0 | 1.78 | 0.312
OSGEP (UniProt Q9NPF4) | 0.166 | –

Target | melting temperature shift [1] [°C] | melting temperature shift [2] [°C]
UniProt Q5T655 | 0.0361 | –
CPNE8 (UniProt Q86YQ8) | -0.368 | –
KIAA0319L (UniProt Q8IZA0) | 3.63 | –
EIF1AD (UniProt Q8N9N8) | -2.68 | 1.36
ARRB1 (UniProt P49407) | 2.15 | 1.99
UniProt Q9Y6X3 | 1.85 | –
UniProt Q9ULJ3 | 2.2 | –
UniProt P20929 | – | 0.488
UniProt P50226 | – | 0.594
ACTR2 (UniProt P61160) | -0.599 | 0.097
FGF2 (UniProt P09038) | -0.94 | -1.94
UniProt Q9BS16 | -2.38 | –
UniProt Q7Z7L9 | -1.84 | –
UniProt Q96HU8 | – | -2.84
UniProt Q9NSB8 | – | -0.0465
HCCS (UniProt P53701) | 1.72 | 0.0149
KCTD15 (UniProt Q96SI1) | -0.778 | 1.14
APPL2 (UniProt Q8NEU8) | 0.822 | -0.341
FLNA (UniProt P21333) | -0.263 | -0.5
WDHD1 (UniProt O75717) | -0.807 | -0.503
DDI2 (UniProt Q5TDH0) | -0.755 | -0.712
CCS (UniProt O14618) | -3.08 | -0.0197
SPRYD4 (UniProt Q8WW59) | 0.571 | -0.531
UniProt Q9H479 | 2.67 | -7.98

7 entries from above, in markdown.

| Target | melting temperature shift [1] [°C] | melting temperature shift [2] [°C] |
| --- | --- | --- |
| FGF2 (UniProt P09038) | -0.94 | -1.94 |
| UniProt Q9BS16 | -2.38 | – |
| UniProt Q7Z7L9 | -1.84 | – |
| UniProt Q96HU8 | – | -2.84 |
| UniProt Q9NSB8 | – | -0.0465 |
| HCCS (UniProt P53701) | 1.72 | 0.0149 |
| KCTD15 (UniProt Q96SI1) | -0.778 | 1.14 |

Additional records follow:

Target | melting temperature shift [1] [°C] | melting temperature shift [2] [°C]
UniProt P19784 | -0.592 | -0.965
ADNP (UniProt Q9H2P0) | 0.605 | 0.141
UBTF (UniProt P17480) | 0.998 | 0.94
ME2 (UniProt P23368) | 0.775 | 2.7
DAP (UniProt P51397) | 0.162 | –
UniProt Q9C0D2 | – | -0.684
TMX2 (UniProt Q9Y320) | 1.73 | -0.738
WDR89 (UniProt Q96FK6) | -1.17 | –
SRSF6 (UniProt Q13247) | 0.35 | 0.569
EIF2S3 (UniProt P41091) | 0.15 | -0.331
TAPBP (UniProt O15533) | 1.52 | -0.669
UniProt Q96FL9 | 0.858 | –
NUP37 (UniProt Q8NFH4) | -0.0953 | 0.811
PLAA (UniProt Q9Y263) | -0.37 | -0.431
SARS (UniProt P49591) | -0.461 | -0.656
UniProt Q9H8S9 | – | 0.236
C1ORF198 (UniProt Q9H425) | – | 1.12
CPSF7 (UniProt Q8N684) | 0.0055 | –
SRPRA (UniProt P08240) | 0.423 | -1.16
ITGA1 (UniProt P56199) | 2.29 | –
LYPLAL1 (UniProt Q5VWZ2) | -0.772 | 0.211
UniProt Q9Y2D2 | – | -1.12
SNX3 (UniProt O60493) | -1.16 | -1.14
ACADVL (UniProt P49748) | 0.98 | -0.255

Target | melting temperature shift [1] [°C] | melting temperature shift [2] [°C]
BCS1L (UniProt Q9Y276) | 0.912 | -0.567
UniProt Q9Y244 | 0.33 | 2.41
CNP (UniProt P09543) | -0.43 | -1.33
UniProt Q14123 | -0.616 | -0.665
UniProt Q9H7N4 | 0.544 | 2.66
COPE (UniProt O14579) | -0.563 | 0.00658
UniProt Q96I45 | 3.14 | –
RAB5A (UniProt P20339) | -0.101 | -0.318
UniProt Q8TER5 | 2.11 | –
TRAPPC3 (UniProt O43617) | -2.07 | -0.709
LIMCH1 (UniProt Q9UPQ0) | -0.961 | 0.705
UniProt O00221 | 1.24 | –
UniProt P05496 | 1.64 | –
CLCC1 (UniProt Q96S66) | 1.55 | 0.424
STXBP2 (UniProt Q15833) | -0.619 | 0.24
UniProt Q9H2Y7 | -0.144 | –
UniProt O75155 | -1.29 | 0.153
ZC3H8 (UniProt Q8N5P1) | -1.08 | -1.04
MOB2 (UniProt Q70IA6) | 0.164 | -0.0117
NOP14 (UniProt P78316) | 0.701 | –
TRIM33 (UniProt Q9UPN9) | -0.0236 | -0.177
CUL4B (UniProt Q13620) | -0.332 | 0.275
VAT1 (UniProt Q99536) | -0.0998 | -0.54
EIF4A3 (UniProt P38919) | -0.465 | 2.15

Target | melting temperature shift [1] [°C] | melting temperature shift [2] [°C]
UniProt P15531 | – | -2.65
TUBB2A (UniProt Q13885) | -0.351 | -0.714
PTGS2 (UniProt P35354) | – | -0.144
UniProt Q9UBG0 | 1.22 | 0.703
UniProt O60507 | 1.5 | 0.143
PAXBP1 (UniProt Q9Y5B6) | -0.0923 | -0.00835
UniProt O76093 | – | -1.93
UniProt Q8WU68 | – | -0.214
EEF2K (UniProt O00418) | -0.306 | –
UniProt O15391 | – | 1.23
STT3A (UniProt P46977) | 0.897 | -0.931
DNAJA2 (UniProt O60884) | -0.254 | 0.439
TMEM65 (UniProt Q6PI78) | 0.483 | 0.191
DARS (UniProt P14868) | -0.942 | -0.373
UniProt Q8NGA1 | -0.941 | –
UBE2J1 (UniProt Q9Y385) | 0.876 | -0.215
KCTD12 (UniProt Q96CX2) | -2.09 | –
UniProt Q8WWV6 | – | -2.97
TLN1 (UniProt Q9Y490) | -0.0896 | -0.323
STAM2 (UniProt O75886) | 0.106 | -0.293
TTC1 (UniProt Q99614) | -3.41 | –
EMC3 (UniProt Q9P0I2) | 0.824 | -0.709

Many values rest on one well or one pass, so single values are uncertain.
